# Data from the supplement of paper PMC3334620.
# The full ranking holds about 33,000 sequences; the median of “E-score (-0.5 to 0.5)” is about -0.015, and the highest 2% start at about 0.3. This is one part of the list.
# Molecular target: T1, Abf1 (UniProt P14164)
# T1 sequence: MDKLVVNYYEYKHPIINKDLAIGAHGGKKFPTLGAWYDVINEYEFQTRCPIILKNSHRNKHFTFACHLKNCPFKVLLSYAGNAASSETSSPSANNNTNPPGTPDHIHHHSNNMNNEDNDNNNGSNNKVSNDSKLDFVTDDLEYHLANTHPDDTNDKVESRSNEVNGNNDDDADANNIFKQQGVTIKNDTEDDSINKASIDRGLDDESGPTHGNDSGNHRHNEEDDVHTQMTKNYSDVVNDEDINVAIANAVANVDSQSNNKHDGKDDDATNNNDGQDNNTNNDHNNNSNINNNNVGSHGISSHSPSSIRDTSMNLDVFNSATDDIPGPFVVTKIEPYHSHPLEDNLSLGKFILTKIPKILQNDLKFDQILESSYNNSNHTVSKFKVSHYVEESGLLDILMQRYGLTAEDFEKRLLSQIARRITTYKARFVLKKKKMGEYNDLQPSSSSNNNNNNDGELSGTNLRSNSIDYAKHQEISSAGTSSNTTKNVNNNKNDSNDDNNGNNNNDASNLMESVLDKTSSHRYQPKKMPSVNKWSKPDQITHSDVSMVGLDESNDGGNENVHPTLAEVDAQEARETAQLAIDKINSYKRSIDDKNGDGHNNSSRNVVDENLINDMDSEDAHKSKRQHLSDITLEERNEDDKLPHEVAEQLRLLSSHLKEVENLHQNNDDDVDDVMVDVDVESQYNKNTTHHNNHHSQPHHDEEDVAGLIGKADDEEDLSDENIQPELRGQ
# Experiment: PBM E-score (8-mer binding enrichment) (E-score (-0.5 to 0.5)); higher = stronger / more preferred TF binding
# Conditions: protein concentration: 200 nM; construct: GST-full length
# Outline: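 Masliner-normalised scans of fluorescent anti-GST signal were the basis for scoring. That signal came from GST-tagged yeast transcription factors applied at about 100-200 nM to double-stranded universal all-10-mer Agilent arrays on fresh or once-stripped slides. Each ungapped eight-base word, pooled with its reverse complement, received an E-score from the Universal PBM Analysis Suite.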
row,Sequence,PBM E-score
1,ATCGTTCC,0.068
2,ACCCTTAG,-0.0524
3,AGCGTCTG,-0.0847
4,AGAACGAC,0.296
5,AAACGAAT,0.147
6,CAGTAAGG,-0.206
7,CTTAGCGC,0.117
8,CAGGTATG,-0.0488
9,AGTATTGG,-0.064
10,CGCTCGAC,-0.14
11,CTCCTGAC,0.0261
12,TCGGATCA,0.046
13,GGACCGCC,-0.141
14,ACCGTGCT,0.139
15,AAAGGATG,0.106
16,TACCAATA,-0.0982
17,GAGTTCAC,-0.0713
18,AAAAAGCA,-0.0031
19,CCCCCTAA,-0.202
20,TCACTACA,0.344
21,CCACATAG,-0.141
22,AAAGTCAC,0.274
23,AGGCTAGC,-0.223
24,AGTTCTAG,0.0126
25,AACTTCAC,0.055

row,Sequence,PBM E-score
1,CCCTTTCG,0.0808
2,ATACTACC,0.0293
3,AAAGACAC,-0.0555
4,ATGTAACG,0.221
5,CAGCCAAG,-0.185
6,AACTGGGG,-0.0927
7,GATGGGCC,-0.28
8,ATAGTCCG,-0.0525
9,GATGAACC,-0.00014
10,CGTCAGCC,0.118
11,CGAACAAC,0.196
12,ATAATACA,0.288
13,TAAGAGAA,0.189
14,TGAACACA,0.0244
15,GATGGCTA,0.074
16,AGTCATAG,-0.065
17,AGACCATG,-0.12
18,ATAGGTAC,-0.00674
19,CTTTCGAA,-0.0228
20,ACCTAGGG,-0.0783
21,AGAACTTA,-0.0203
22,CTCTACTC,-0.129
23,AAACTAGA,0.0568
24,GTTAGAGA,-0.0803
25,AATTCCCA,0.0516

row,Sequence,PBM E-score
1,AATTATTG,0.0813
2,CCCTGCCG,-0.0722
3,GAGGAGGA,-0.262
4,GTGTCGTA,0.208
5,ACCGGTAA,0.00473
6,AATATGAC,0.221
7,CCTATTAA,0.0196
8,ACCGTTAG,0.111
9,AGCCAATG,-0.129
10,CAGATAAC,-0.03
11,CTCTCAGA,-0.0951
12,ACTCGTGG,-0.0219
13,CCCGCATA,-0.0183
14,GCCGTACA,0.294
15,ATTTCTGC,0.0795
16,CTTAAGCA,-0.0462
17,AGAGAGGA,-0.197
18,CCACGGGG,-0.147
19,CCGCCAAC,-0.248
20,GTGAGAAA,0.243
21,GTTAGAAA,0.204
22,AAACAACC,0.02
23,AAAGAGTT,0.023
24,AAAGTCCG,0.0535
25,AACTTGGT,0.0132

# Individual results from the list:
# GATGGGCC | PBM E-score: -0.28
# ATAATACA | PBM E-score: 0.288

# The list goes on.

row,Sequence,PBM E-score
1,AGACTGAA,-0.0702
2,CCCGTTCG,0.109
3,ACCTCCAT,-0.21
4,GTCGGTCA,0.0941
5,ATTCAGAG,0.0724
6,CACGAGAC,0.149
7,CCGAACTA,-0.143
8,AGAATCGA,0.131
9,CGTATCAG,0.0845
10,AAACGGTT,-0.224
11,CGGGTCAC,-0.109
12,ACGCCTAG,-0.0441
13,GTGCCGTA,0.142
14,GGTACGCA,-0.0249
15,CTTTTAAC,0.206
16,GTGCGTCA,0.0472
17,CAACTAGC,0.128
18,CGGACAGA,-0.101
19,ACACGCGA,0.106
20,CTTATGTA,0.214
21,ATCCAGCC,-0.153
22,TAACGTAA,0.115
23,CCCGGACA,0.12
24,TAGATTCA,-0.00457
25,ATGCGGTG,0.0635

row,Sequence,PBM E-score
1,CCTTGAAA,-0.0683
2,GAACCATA,-0.0703
3,TGAGACAA,0.111
4,AAGGCACT,-0.119
5,TGAGTACA,0.0445
6,ATAAGCAA,0.00499
7,CCATTGCG,-0.172
8,CCCTATGA,-0.091
9,TCATTGGA,0.173
10,CTCATTAA,0.148
11,GCAGGAAA,0.129
12,TGATGAAA,0.0461
13,CTCTCTCC,-0.134
14,GTGCGAGA,0.0794
15,CGGTCGAG,-0.298
16,CGAAGAAC,-0.0433
17,AATTAGTA,0.0644
18,AGTCTCTA,-0.0544
19,CCGGTAGC,-0.32
20,CTCAGTTA,-0.117
21,CTCCCTGC,-0.223
22,ATTGCACG,0.279
23,ACACCTCG,0.0446
24,GAGGACGA,0.193
25,ACTCAATA,0.0378

row,Sequence,PBM E-score
1,GAATCGAA,0.0566
2,CATGTACG,0.319
3,CAGTCAGC,-0.245
4,CTTCAAAA,0.112
5,AAAATGGA,0.238
6,AATAGGAC,-0.0626
7,AATCGTAC,0.218
8,ATAGTATA,0.00451
9,GCAATAAC,-0.124
10,GACCGACA,-0.169
11,GCTTTATA,-0.0302
12,AATGTATA,0.215
13,GCATGGAA,-0.00157
14,CAGCGTTC,-0.0425
15,AGAAACCT,-0.237
16,ACACCGAA,-0.076
17,AGCGTCTA,-0.0976
18,GTCCGTCA,0.2
19,ACTGGACA,0.0429
20,ACTACTCT,-0.0302
21,GACCGAGC,-0.244
22,ACGTGACA,0.355
23,ATGAAACA,-0.133
24,TACAACTA,-0.0372
25,AGCAGCAC,-0.0899

# 3 neighbouring records out of the list so far, for reference:
row,Sequence,PBM E-score
5,TGAGTACA,0.0445
6,ATAAGCAA,0.00499
7,CCATTGCG,-0.172

# (listing goes on)

row,Sequence,PBM E-score
1,GACCAGCC,-0.19
2,CTGTCGTC,0.289
3,AGGGGTCG,-0.231
4,CTGCTGAA,-0.0624
5,AGTGTCAC,0.174
6,AACACTAT,0.162
7,GGATGACC,0.0842
8,AGAGTAAG,-0.0979
9,CCGTGCAA,0.334
10,CGTTTTAA,0.105
11,ACCAAAGG,-0.266
12,CCCTGGTC,-0.249
13,CCCAATGC,-0.262
14,ACCTGAAT,0.125
15,GCGCGGAC,0.0773
16,GTAATTTA,0.0741
17,CGGATGGC,0.0675
18,ACATTTTA,0.258
19,GCGTTCGA,0.139
20,CTAACTCA,-0.0437
21,ATCGAACA,0.0596
22,CTAGATTC,-0.0799

# Quoted at random: six entries already listed.
row,Sequence,PBM E-score
3,AAAGACAC,-0.0555
8,ATAGTATA,0.00451
4,AGAACGAC,0.296
11,CTCTCAGA,-0.0951
2,CATGTACG,0.319
1,GAATCGAA,0.0566
